Results are given in words; binding and its absence hold for the method and conditions named. Binding seen in cells or lysates may run through a third protein. Some binding calls cover weakened binding; strength is not graded here. Tags and fused reporters may be left off the sequences shown.
Target: T1, HA-tagged Treacle (pcDNA4-TO-strep-HA-GFP-Treacle) (UniProt Q13428)
T1 sequence: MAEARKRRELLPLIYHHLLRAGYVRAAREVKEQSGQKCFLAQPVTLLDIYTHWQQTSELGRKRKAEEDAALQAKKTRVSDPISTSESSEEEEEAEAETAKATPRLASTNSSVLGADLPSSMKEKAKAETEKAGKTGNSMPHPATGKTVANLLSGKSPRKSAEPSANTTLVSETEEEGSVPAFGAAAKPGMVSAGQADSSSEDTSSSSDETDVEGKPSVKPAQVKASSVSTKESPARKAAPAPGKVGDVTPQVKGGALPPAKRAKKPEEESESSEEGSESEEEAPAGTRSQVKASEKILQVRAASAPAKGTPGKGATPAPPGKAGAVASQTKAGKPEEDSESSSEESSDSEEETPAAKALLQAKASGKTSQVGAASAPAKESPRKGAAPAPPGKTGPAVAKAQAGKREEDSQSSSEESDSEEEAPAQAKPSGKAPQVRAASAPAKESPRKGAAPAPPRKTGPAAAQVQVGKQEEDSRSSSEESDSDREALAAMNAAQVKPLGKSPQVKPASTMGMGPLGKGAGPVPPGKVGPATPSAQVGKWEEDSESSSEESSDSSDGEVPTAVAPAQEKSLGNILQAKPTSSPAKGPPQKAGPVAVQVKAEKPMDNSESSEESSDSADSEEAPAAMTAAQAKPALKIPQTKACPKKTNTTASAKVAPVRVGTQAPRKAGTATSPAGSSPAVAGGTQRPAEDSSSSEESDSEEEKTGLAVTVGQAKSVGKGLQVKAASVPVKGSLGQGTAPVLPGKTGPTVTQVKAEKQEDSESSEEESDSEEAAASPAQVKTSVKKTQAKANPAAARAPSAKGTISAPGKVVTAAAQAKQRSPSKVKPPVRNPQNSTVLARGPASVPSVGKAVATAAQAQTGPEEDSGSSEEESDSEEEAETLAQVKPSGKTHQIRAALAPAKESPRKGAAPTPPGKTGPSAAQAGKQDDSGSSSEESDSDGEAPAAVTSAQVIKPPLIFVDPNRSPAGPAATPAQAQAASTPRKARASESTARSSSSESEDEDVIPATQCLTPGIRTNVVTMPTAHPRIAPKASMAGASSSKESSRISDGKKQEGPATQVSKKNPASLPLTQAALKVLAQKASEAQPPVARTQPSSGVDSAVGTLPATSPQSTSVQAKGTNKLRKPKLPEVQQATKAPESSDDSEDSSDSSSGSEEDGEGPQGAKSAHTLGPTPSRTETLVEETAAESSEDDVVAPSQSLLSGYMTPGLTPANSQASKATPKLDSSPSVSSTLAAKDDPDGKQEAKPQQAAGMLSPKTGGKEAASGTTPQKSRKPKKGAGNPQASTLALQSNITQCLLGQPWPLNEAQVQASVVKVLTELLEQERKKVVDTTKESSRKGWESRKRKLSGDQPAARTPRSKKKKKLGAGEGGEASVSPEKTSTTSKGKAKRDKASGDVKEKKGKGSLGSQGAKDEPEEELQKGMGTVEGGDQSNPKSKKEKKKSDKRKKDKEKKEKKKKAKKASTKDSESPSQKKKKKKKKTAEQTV
Experiment: co-IP

Protein sequences, listed by entry. Tags and fused reporters are not part of them.
UniProt O60934: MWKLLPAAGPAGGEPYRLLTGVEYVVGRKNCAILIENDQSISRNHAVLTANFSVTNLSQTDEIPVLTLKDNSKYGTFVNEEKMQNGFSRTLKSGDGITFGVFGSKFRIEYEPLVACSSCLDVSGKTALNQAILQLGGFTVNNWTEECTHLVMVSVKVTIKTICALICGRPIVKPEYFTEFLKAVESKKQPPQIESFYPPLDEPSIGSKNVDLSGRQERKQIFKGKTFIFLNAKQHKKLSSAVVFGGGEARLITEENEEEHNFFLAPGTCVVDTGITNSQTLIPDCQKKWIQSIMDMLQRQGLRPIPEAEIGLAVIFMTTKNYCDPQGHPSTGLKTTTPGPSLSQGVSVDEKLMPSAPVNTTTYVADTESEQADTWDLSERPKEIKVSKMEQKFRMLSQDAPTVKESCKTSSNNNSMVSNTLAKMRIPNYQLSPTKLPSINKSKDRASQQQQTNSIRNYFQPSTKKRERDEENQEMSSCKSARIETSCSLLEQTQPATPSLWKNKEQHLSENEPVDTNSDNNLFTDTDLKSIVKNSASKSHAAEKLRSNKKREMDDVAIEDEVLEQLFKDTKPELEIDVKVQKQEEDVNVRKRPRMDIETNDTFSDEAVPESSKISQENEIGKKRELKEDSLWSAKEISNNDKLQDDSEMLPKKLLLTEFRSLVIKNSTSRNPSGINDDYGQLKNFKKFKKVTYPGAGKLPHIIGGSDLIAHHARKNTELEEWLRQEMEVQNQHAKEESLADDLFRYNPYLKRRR

Q: Which binding does the source give for NBS1 (from UniProt O60934 1-754) here?
A: binds

— paper doi:10.1101/2025.04.21.649841
